Data as given in PubChem BioAssay AID504786 (Drosophila RNAi Screening Center, 2011)
The deposit covers about 21,000 reagents; below is an unselected part of those with a known target gene and a result. 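Primary screen; positive scores mean lost reporter signal, so the sign may be inverted from the usual convention.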 The numbers tell different reagents against one gene apart. Names joined by + are all predicted targets of the reagent. No sequences are given here.

Test: 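Knock-downs reducing HIF reporter induction by the iron chelator DFO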 (primary screen)
Cell system: Drosophila S2 cells with a stable HIF luciferase reporter
Reagent: long dsRNA against Drosophila genes, about 0.2 µg dsRNA per well of a 384-well plate
Time to read-out: three days of knock-down, then 20 h of DFO before reading
Conditions: desferrioxamine (DFO) at 100 µM, an iron chelator that mimics hypoxia, for 20 h
Measured: 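HIF reporter luminescence in cells given 100 µM DFO for 20 h, using the mouse ldh-a hypoxia-response element, scored as per-plate z-scores; higher means greater loss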
Direction: z-score: higher = stronger loss of HIF reporter signal

target gene | reagent no. | z-score, replicate 1 | z-score, replicate 2 | z-score, replicate 3 | z-score, replicate 4
Top1 | 1 | -0.3 | 0.7 | – | –
Ttd14 | 1 | -0.3 | -0.7 | – | –
Ttd14 | 2 | -0.4 | -0.3 | – | –
l(1)G0320 | 1 | -0.2 | -0.2 | – | –
lin | 1 | -0.2 | -0.3 | – | –
CG7849 | 1 | 0.2 | 0.3 | – | –
CG12971 | 1 | 0.6 | 0.3 | – | –
gl | 1 | -1.1 | 0.3 | – | –
Rcd-1r + CG13102 | 1 | -0.3 | -0.6 | – | –
CG42268 | 1 | -0.4 | -0.7 | – | –
CG42268 | 2 | -0.3 | -0.6 | – | –
park | 1 | 0 | 0 | – | –
CheB93a | 1 | 0.2 | -0.7 | – | –
Cpr11A | 1 | -0.3 | 0.5 | – | –
CG3708 | 1 | -0.3 | -0.5 | – | –
Nepl9 | 1 | -0.1 | -0.3 | – | –
msk | 1 | 0.4 | 0.7 | – | –
CG10970 | 1 | -0.4 | -0.6 | – | –
Stacl + CG8179 (retired record) | 1 | 1.4 | 1.4 | 4.8 | 2.8
CG1951 | 1 | -0.3 | 0 | – | –
CG3699 | 1 | -0.4 | -0.1 | – | –
CG3699 | 2 | -0.3 | 0 | – | –
Saf6 | 1 | 0.1 | -0.2 | – | –
oys | 1 | 0.5 | 0.8 | – | –
oys | 2 | -0.3 | -0.4 | – | –
Rpt4 | 1 | 4.9 | 4.9 | – | –
uzip | 1 | -0.1 | -0.2 | – | –
CG10477 | 1 | -0.1 | -0.5 | – | –
CG18130 | 1 | -0.4 | -0.7 | – | –
CG43066 | 1 | -0.2 | 0 | 0 | -0.1
Rnp4F | 1 | -0.4 | -0.4 | – | –
Pvf3 | 1 | -0.2 | 0.2 | – | –
Pvf3 | 2 | -0.1 | -0.2 | – | –
Pvf3 | 3 | -0.2 | 0.1 | – | –
Pvf3 | 4 | -0.2 | -0.3 | – | –
trn | 1 | -0.2 | -0.3 | – | –
CG30375 | 1 | -0.3 | -0.3 | – | –
Egfrap | 1 | -0.3 | -0.6 | – | –
Egfrap | 2 | -0.5 | -0.6 | – | –
CG14095 | 1 | -0.2 | -0.8 | – | –
Kmn1 | 1 | 0.2 | 1.1 | – | –
tll | 1 | -0.3 | -0.8 | – | –
sNPF-R | 1 | -0.4 | -0.4 | – | –
Klc | 1 | -0.3 | -0.4 | – | –
CG13004 | 1 | -0.2 | 0.2 | – | –
Cyp6a2 | 1 | -0.2 | 0.4 | – | –
CG2698 | 1 | 0.3 | -0.2 | – | –
CG9003 | 1 | -0.4 | -0.9 | – | –
CG30043 | 1 | -0.5 | -0.3 | – | –
drongo | 1 | -0.2 | 0.5 | – | –
VGAT | 1 | 0 | -0.5 | – | –
CG10839 | 1 | 0.2 | -0.5 | – | –
CG8097 | 1 | 0 | -0.8 | – | –
ssh | 1 | -0.1 | -0.2 | – | –
CG31663 | 1 | -0.3 | -0.3 | – | –
CG31663 | 2 | -0.2 | -0.4 | – | –
CG31663 | 3 | -0.7 | -0.4 | – | –
CG31663 | 4 | -0.1 | 0 | – | –
CG42336 | 1 | -0.2 | -0.2 | – | –
CG42336 | 2 | -0.2 | 0 | – | –
CG42336 | 3 | -0.2 | -0.4 | -0.4 | -0.1
AANATL5 | 1 | -0.3 | -0.7 | – | –
TBC1D16 | 1 | 0 | 0.3 | – | –
CG13171 | 1 | -0.3 | -0.4 | – | –
vers | 1 | 1.6 | 0.8 | – | –
CG9436 | 1 | -0.1 | -0.1 | – | –
CG15059 | 1 | -0.3 | -0.8 | – | –
atk | 1 | -0.2 | 0 | -0.4 | -0.3
atk | 2 | -0.2 | -0.2 | – | –
CG33958 | 1 | -0.3 | 1.3 | – | –
CG33958 | 2 | -0.4 | -0.7 | – | –
CG6574 | 1 | -0.2 | -0.2 | – | –
CG8206 | 1 | -0.2 | -0.2 | – | –
Fitm | 1 | -0.3 | 0.6 | – | –
Opa1 | 1 | -0.1 | -0.2 | – | –
CG34247 | 1 | -0.2 | -0.6 | – | –
CG33768 | 1 | 0.2 | 0.7 | – | –
CG13501 | 1 | -0.1 | 0 | – | –
Not3 | 1 | -0.3 | -0.8 | – | –
x16 | 1 | 0.5 | 0.9 | – | –
x16 | 2 | -0.3 | -0.2 | – | –
CG6294 + CG6299 | 1 | -0.4 | 0 | – | –
alphaCOP | 1 | -0.3 | -0.6 | – | –
CG13362 | 1 | -0.2 | -0.6 | – | –
CG10694 | 1 | -0.3 | -0.4 | – | –
CG9737 | 1 | -0.5 | -0.2 | – | –
Rfx | 1 | 0.4 | 0.8 | – | –
CG8299 | 1 | -0.3 | 0 | – | –
mthl5 | 1 | -0.3 | -0.5 | – | –
Pkc98E | 1 | -0.3 | 0.5 | – | –
robls54B | 1 | -0.4 | -0.1 | – | –
CG10910 | 1 | -0.2 | -0.6 | -0.6 | -0.3
Nep1 | 1 | -0.3 | -0.5 | – | –
Nep1 | 2 | 2.7 | 1.3 | – | –
CG5056 | 1 | -0.2 | -0.5 | – | –
CG12024 | 1 | -0.2 | -0.3 | – | –
Prx6a | 1 | -0.3 | -0.4 | – | –
Usp20-33 | 1 | -0.3 | 0 | – | –
Syngr | 1 | -0.1 | 0.5 | – | –
CG17192 | 1 | -0.3 | -0.2 | – | –
CG4972 | 1 | -0.1 | 0.5 | – | –
CG4789 | 1 | -0.3 | -0.7 | – | –
PpD5 | 1 | 0 | -0.1 | – | –
Cpr76Bb | 1 | -0.3 | -0.1 | – | –
dpr11 | 1 | -0.2 | 0.3 | – | –
dpr11 | 2 | -0.5 | -0.4 | – | –
dpr11 | 3 | -0.4 | -0.3 | – | –
